These are yes or no findings as the source states them, for the method shown. In cells and extracts the contact can be indirect. Some binding calls cover weakened binding; strength is not graded here. Where a sequence is shown, tags or fusion partners need not be part of it.
Molecular target: T1, V5-SBP-Smaug1 (full-length human Smaug1 fused to a V5-SBP double tag) (human) (UniProt Q9UPU9)
T1 sequence: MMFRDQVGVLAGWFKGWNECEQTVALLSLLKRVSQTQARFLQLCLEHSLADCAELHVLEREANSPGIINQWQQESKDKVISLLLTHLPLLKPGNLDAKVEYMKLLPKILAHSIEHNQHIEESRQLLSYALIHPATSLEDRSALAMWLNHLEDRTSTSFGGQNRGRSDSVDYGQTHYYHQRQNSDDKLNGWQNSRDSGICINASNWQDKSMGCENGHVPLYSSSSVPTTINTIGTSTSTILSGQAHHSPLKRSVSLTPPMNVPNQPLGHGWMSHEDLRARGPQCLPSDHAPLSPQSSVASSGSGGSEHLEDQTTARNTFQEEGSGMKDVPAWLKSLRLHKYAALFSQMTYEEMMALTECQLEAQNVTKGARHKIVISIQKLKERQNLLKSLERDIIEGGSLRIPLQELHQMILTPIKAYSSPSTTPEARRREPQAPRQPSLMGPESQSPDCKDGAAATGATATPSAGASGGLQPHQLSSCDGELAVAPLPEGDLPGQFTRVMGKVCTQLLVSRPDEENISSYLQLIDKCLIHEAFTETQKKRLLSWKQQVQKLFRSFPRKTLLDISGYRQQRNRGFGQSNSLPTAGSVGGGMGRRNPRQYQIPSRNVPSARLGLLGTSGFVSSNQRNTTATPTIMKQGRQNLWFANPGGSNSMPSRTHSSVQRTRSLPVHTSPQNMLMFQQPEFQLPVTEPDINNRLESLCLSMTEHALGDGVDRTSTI
Assay: pull-down

| Binder | binding |
| --- | --- |
| Smaug1-ECFP (pECFP-N1-hSmaug1) (protein, UniProt Q9UPU9 1-718) MMFRDQVGVLAGWFKGWNECEQTVALLSLLKRVSQTQARFLQLCLEHSLADCAELHVLEREANSPGIINQWQQESKDKVISLLLTHLPLLKPGNLDAKVEYMKLLPKILAHSIEHNQHIEESRQLLSYALIHPATSLEDRSALAMWLNHLEDRTSTSFGGQNRGRSDSVDYGQTHYYHQRQNSDDKLNGWQNSRDSGICINASNWQDKSMGCENGHVPLYSSSSVPTTINTIGTSTSTILSGQAHHSPLKRSVSLTPPMNVPNQPLGHGWMSHEDLRARGPQCLPSDHAPLSPQSSVASSGSGGSEHLEDQTTARNTFQEEGSGMKDVPAWLKSLRLHKYAALFSQMTYEEMMALTECQLEAQNVTKGARHKIVISIQKLKERQNLLKSLERDIIEGGSLRIPLQELHQMILTPIKAYSSPSTTPEARRREPQAPRQPSLMGPESQSPDCKDGAAATGATATPSAGASGGLQPHQLSSCDGELAVAPLPEGDLPGQFTRVMGKVCTQLLVSRPDEENISSYLQLIDKCLIHEAFTETQKKRLLSWKQQVQKLFRSFPRKTLLDISGYRQQRNRGFGQSNSLPTAGSVGGGMGRRNPRQYQIPSRNVPSARLGLLGTSGFVSSNQRNTTATPTIMKQGRQNLWFANPGGSNSMPSRTHSSVQRTRSLPVHTSPQNMLMFQQPEFQLPVTEPDINNRLESLCLSMTEHALGDGVDRTSTI | binds |
| SSR1/2-ECFP (SSR1/2-hSmaug1-ECFP, amino acids 2 to 154) (domain or fragment, UniProt Q9UPU9 2-154) MFRDQVGVLAGWFKGWNECEQTVALLSLLKRVSQTQARFLQLCLEHSLADCAELHVLEREANSPGIINQWQQESKDKVISLLLTHLPLLKPGNLDAKVEYMKLLPKILAHSIEHNQHIEESRQLLSYALIHPATSLEDRSALAMWLNHLEDRT | binds |
